From article PMC8384837 come the findings set out here.

Changes are numbered by the printed parent chain. This is one part of the list. For some assays here: At the low end of the ranking, values are background and their order means little.

Holding throughout (conditions): yeast three-hybrid, YBZ-1, SC-Leu-His + 0.5 mM 3-AT, 4 days
The target in assay [1] is T1, PUM1 PUF domain R2-VFQ R3-THE R4-TFR N899V + Y900F + C935T + R936H + Q939E + N971T + H972F + Q975R (UniProt Q14671).
T1 sequence: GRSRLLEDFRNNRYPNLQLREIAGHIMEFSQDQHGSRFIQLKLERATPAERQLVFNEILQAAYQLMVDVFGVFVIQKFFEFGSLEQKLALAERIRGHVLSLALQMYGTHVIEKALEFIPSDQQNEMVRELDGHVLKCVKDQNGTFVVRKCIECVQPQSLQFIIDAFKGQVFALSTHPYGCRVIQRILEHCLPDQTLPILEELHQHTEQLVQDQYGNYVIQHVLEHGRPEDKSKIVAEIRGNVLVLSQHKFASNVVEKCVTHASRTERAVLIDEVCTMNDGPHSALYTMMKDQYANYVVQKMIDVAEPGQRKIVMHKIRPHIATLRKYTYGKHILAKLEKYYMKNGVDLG

The target of assay [2] is T2, PUM1 PUF domain R1-QFR R2-VFQ R7-NPG S863Q + R864F + Q867R + N899V + Y900F + S1079N + N1080P + E1083G (UniProt Q14671).
T2 sequence: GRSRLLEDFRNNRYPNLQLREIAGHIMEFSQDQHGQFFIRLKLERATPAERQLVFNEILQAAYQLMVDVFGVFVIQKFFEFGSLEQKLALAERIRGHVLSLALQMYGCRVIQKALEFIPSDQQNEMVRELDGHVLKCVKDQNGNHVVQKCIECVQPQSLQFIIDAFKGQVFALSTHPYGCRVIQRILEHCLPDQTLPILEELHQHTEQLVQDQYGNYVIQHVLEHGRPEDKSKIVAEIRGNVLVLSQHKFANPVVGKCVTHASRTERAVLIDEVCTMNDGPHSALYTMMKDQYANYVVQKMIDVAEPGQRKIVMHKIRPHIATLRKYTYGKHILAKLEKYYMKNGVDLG

Assay [3] concerns the target T3, PUM1 PUF domain R6-SWD R7-NPG N1043S + Y1044W + Q1047D + S1079N + N1080P + E1083G (Homo sapiens) (UniProt Q14671).
T3 sequence: T2 sequence with Q36S, F37R, R40Q, V72N, F73Y, N216S, Y217W, Q220D

“GGCUAGAACUAGUGGAUCCCCCGGCGCCCGGCGGCUCGAGCCCGGGUAAGUUCAGUUAGUCUGCAUGCCGCCGGGCGCCAUGCCUGCAGGUCGACUCUAGAAAACAUG”: the binding signal (log2 enrichment (interaction score)) in assay [1] is -4.79.

Take “GGCUAGAACUAGUGGAUCCCCCGGCGCCCGGCGGCUCGAGCCCGGGUAAGAUCAAGAUGUCUGCAUGCCGCCGGGCGCCAUGCCUGCAGGUCGACUCUAGAAAACAUG”: the binding signal (log2 enrichment (interaction score)) in assay [1] was -5.01. Same read-out and setting: for “GGCUAGAACUAGUGGAUCCCCCGGCGCCCGGCGGCUCGAGCCCGGGUAAGGUGAUACAGUCUGCAUGCCGCCGGGCGCCAUGCCUGCAGGUCGACUCUAGAAAACAUG” the value was -4.64. For the sequence “GGCUAGAACUAGUGGAUCCCCCGGCGCCCGGCGGCUCGAGCCCGGGUAAGGUGAGGCAGUCUGCAUGCCGCCGGGCGCCAUGCCUGCAGGUCGACUCUAGAAAACAUG”, the figures for the binding signal (log2 enrichment (interaction score)) in assay [2] and in assay [3] were -5.88 and -1.1, respectively. For the sequence “GGCUAGAACUAGUGGAUCCCCCGGCGCCCGGCGGCUCGAGCCCGGGUAAGUUGGACACGUCUGCAUGCCGCCGGGCGCCAUGCCUGCAGGUCGACUCUAGAAAACAUG”, the binding signal (log2 enrichment (interaction score)) in assay [2] is under -6.14; in assay [3], -0.89. With “GGCUAGAACUAGUGGAUCCCCCGGCGCCCGGCGGCUCGAGCCCGGGUAAGCGUACCAGGUCUGCAUGCCGCCGGGCGCCAUGCCUGCAGGUCGACUCUAGAAAACAUG”, the binding signal (log2 enrichment (interaction score)) in assay [1] was -4.46. In the case of “GGCUAGAACUAGUGGAUCCCCCGGCGCCCGGCGGCUCGAGCCCGGGUAAGAAGACAAAGUCUGCAUGCCGCCGGGCGCCAUGCCUGCAGGUCGACUCUAGAAAACAUG”, the binding signal (log2 enrichment (interaction score)) in assay [1] was under -5.79.

Turning to “GGCUAGAACUAGUGGAUCCCCCGGCGCCCGGCGGCUCGAGCCCGGGUAAGGUGAUGACGUCUGCAUGCCGCCGGGCGCCAUGCCUGCAGGUCGACUCUAGAAAACAUG”, the binding signal (log2 enrichment (interaction score)) in assay [1] was -5.32. The same measure, in the same setting: for “GGCUAGAACUAGUGGAUCCCCCGGCGCCCGGCGGCUCGAGCCCGGGUAAGCGUUUCUUGUCUGCAUGCCGCCGGGCGCCAUGCCUGCAGGUCGACUCUAGAAAACAUG” the value was -5.63.

As for “GGCUAGAACUAGUGGAUCCCCCGGCGCCCGGCGGCUCGAGCCCGGGUAAGUCAAAAACGUCUGCAUGCCGCCGGGCGCCAUGCCUGCAGGUCGACUCUAGAAAACAUG”, the binding signal (log2 enrichment (interaction score)) was -5.63 in assay [2] and -1.97 in assay [3]. On to “GGCUAGAACUAGUGGAUCCCCCGGCGCCCGGCGGCUCGAGCCCGGGUAAGUAUAAGAGGUCUGCAUGCCGCCGGGCGCCAUGCCUGCAGGUCGACUCUAGAAAACAUG”, for which the binding signal (log2 enrichment (interaction score)) in assay [1] was -5.06.
